Results deposited as PubChem BioAssay AID1159584 (Peter MacCallum Cancer Centre, 2016)

Screen: 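Genes whose loss is lethal only together with E-cadherin loss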 (primary screen)
System: human MCF10A breast epithelial cells, parental and CDH1-null
Reagents: siRNA against human genes
Detection: 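ATP luminescence (CellTiter-Glo) viability per line relative to mean mock wells over all plates, and the ratio of CDH1-null to parental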
Scale: CDH1-null / parental viability ratio: higher = CDH1-null cells survive relatively better than parental; CDH1-null viability vs mock: higher = more viable CDH1-null cells; parental viability vs mock: higher = more viable parental cells
The deposit covers about 18,000 reagents; shown is a part drawn at random. Reagent sequences are not shown. The record does not give: the amount of reagent, the time to read-out.

gene knocked down	CDH1-null / parental viability ratio	CDH1-null viability vs mock (fraction of mock)	parental viability vs mock (fraction of mock)
PRPS1L1 (GeneID 221823)	0.95	0.92	0.97
PGCKA1 (GeneID 55286)	0.94	0.75	0.8
TCP11L2 (GeneID 255394)	0.82	0.67	0.82
TMPRSS11E (GeneID 28983)	0.93	0.67	0.72
FOLR3 (GeneID 2352)	0.82	0.54	0.66
CLIP2 (GeneID 7461)	0.73	0.6	0.82
ARHGAP42 (GeneID 143872)	0.87	0.68	0.78
ZNF580 (GeneID 51157)	0.81	0.51	0.63
LMAN2 (GeneID 10960)	1	0.52	0.52
TDP2 (GeneID 51567)	1.08	0.82	0.76
VPS11 (GeneID 55823)	0.6	0.18	0.3
ATP6V0A1 (GeneID 535)	0.98	1.07	1.09
ATG5 (GeneID 9474)	1	0.86	0.86
SNRNP25 (GeneID 79622)	0.67	0.38	0.57
DOK4 (GeneID 55715)	1.42	0.88	0.62
SUSD3 (GeneID 203328)	1.08	0.82	0.76
TARBP2 (GeneID 6895)	1.25	0.75	0.6
TRIM4 (GeneID 89122)	0.81	0.52	0.64
TRIM51EP (GeneID 399940)	0.94	0.82	0.87
GMEB2 (GeneID 26205)	1.05	0.92	0.88
FCRLB (GeneID 127943)	0.94	0.85	0.9
DTYMK (GeneID 1841)	0.96	0.92	0.96
OR13C4 (GeneID 138804)	0.71	0.8	1.12
RBMY1D (GeneID 378949)	1.06	1.21	1.14
NAGPA (GeneID 51172)	0.72	0.6	0.83
SLC5A4 (GeneID 6527)	0.93	1.04	1.12
ZNF44 (GeneID 51710)	0.8	0.66	0.83
EXOC3L2 (GeneID 90332)	1.18	1.09	0.92
SNX14 (GeneID 57231)	1.13	0.88	0.78
APLP2 (GeneID 334)	0.99	0.89	0.9
MAPK9 (GeneID 5601)	0.89	0.72	0.81
SPATA6L (GeneID 55064)	0.99	0.91	0.92
MOV10 (GeneID 4343)	1.12	0.94	0.84
FBP1 (GeneID 2203)	1.33	0.96	0.72
OR10V1 (GeneID 390201)	1.06	0.84	0.79
TENT5C (GeneID 54855)	1.11	0.69	0.62
EPHB2 (GeneID 2048)	1.03	1.08	1.05
FAM217B (GeneID 63939)	0.57	0.46	0.81
PLCB2 (GeneID 5330)	1.21	0.94	0.78
GPR87 (GeneID 53836)	0.82	0.68	0.83
SETD4 (GeneID 54093)	0.91	0.49	0.54
MAGEA9 (GeneID 4108)	1.19	1	0.84
NGLY1 (GeneID 55768)	0.9	0.85	0.94
KRTAP19-4 (GeneID 337971)	1.31	0.84	0.64
ZER1 (GeneID 10444)	0.91	0.78	0.86
SCGN (GeneID 10590)	1.53	0.81	0.53
TUT1 (GeneID 64852)	0.83	0.3	0.36
YTHDF2 (GeneID 51441)	0.48	0.25	0.52
PECAM1 (GeneID 5175)	0.82	0.74	0.9
ZNF300 (GeneID 91975)	1.33	0.64	0.48
PCMT1 (GeneID 5110)	1.15	0.92	0.8
ACER1 (GeneID 125981)	0.84	0.57	0.68
CCN6 (GeneID 8838)	1.61	0.5	0.31
MYLK4 (GeneID 340156)	1.01	0.78	0.77
CDPF1 (GeneID 150383)	1.11	0.8	0.72
DNAAF6 (GeneID 139212)	1.04	0.99	0.95
BICRAL (GeneID 23506)	1.03	0.92	0.89
ZKSCAN5 (GeneID 23660)	0.94	0.58	0.62
GOLGA6B (GeneID 55889)	0.8	0.78	0.98
SERINC3 (GeneID 10955)	1.08	1.25	1.16
SLC2A14 (GeneID 144195)	0.95	0.72	0.76
THBD (GeneID 7056)	1.02	1.08	1.06
HS6ST1 (GeneID 9394)	0.98	0.86	0.88
ACSF3 (GeneID 197322)	1.13	0.59	0.52
ADH4 (GeneID 127)	0.89	0.71	0.8
UTP4 (GeneID 84916)	1.41	0.9	0.64
APOBEC2 (GeneID 10930)	0.89	0.82	0.92
DEFB108B (GeneID 245911)	1.21	0.81	0.67
NDUFS5 (GeneID 4725)	1.07	0.92	0.86
SLC22A5 (GeneID 6584)	1.01	0.97	0.96
TSPAN4 (GeneID 7106)	0.95	0.4	0.42
SRA1 (GeneID 10011)	1.07	0.49	0.46
FAM47C (GeneID 442444)	0.96	0.81	0.84
PPP6R2 (GeneID 9701)	1.03	0.92	0.89
E4F1 (GeneID 1877)	0.79	0.53	0.67
SLC22A13 (GeneID 9390)	1	0.62	0.62
CLEC4A (GeneID 50856)	0.74	0.5	0.68
EXOSC6 (GeneID 118460)	0.8	0.48	0.6
PDZD11 (GeneID 51248)	1	0.38	0.38
RPLP2 (GeneID 6181)	1.19	0.5	0.42
FXYD6 (GeneID 53826)	0.92	0.73	0.79
GPC1 (GeneID 2817)	0.9	0.45	0.5
EIF3M (GeneID 10480)	1.11	0.6	0.54
TIGD1 (GeneID 200765)	1.12	0.9	0.8
NPAS3 (GeneID 64067)	1.63	0.62	0.38
CPO (GeneID 130749)	0.91	0.75	0.82
LINC01588 (GeneID 283551)	1.74	0.73	0.42

Limited to “CDH1-null / parental viability ratio”, for 14 of the entries above:
ZKSCAN5 (GeneID 23660): 0.94
GOLGA6B (GeneID 55889): 0.8
SERINC3 (GeneID 10955): 1.08
SLC2A14 (GeneID 144195): 0.95
THBD (GeneID 7056): 1.02
HS6ST1 (GeneID 9394): 0.98
ACSF3 (GeneID 197322): 1.13
ADH4 (GeneID 127): 0.89
UTP4 (GeneID 84916): 1.41
APOBEC2 (GeneID 10930): 0.89
DEFB108B (GeneID 245911): 1.21
NDUFS5 (GeneID 4725): 1.07
SLC22A5 (GeneID 6584): 1.01
TSPAN4 (GeneID 7106): 0.95
